Test results taken from patent EP2226633A1.
Results are given in words; binding and its absence hold for the method and conditions named. Binding seen in cells or lysates may run through a third protein. Some results given as binding are weak or reduced against the parent protein; the word gives no strength. Sequences can lack the tags named with a protein.

What was measured:
[1] = target: T1, rat LIFRα of rat primary cortical neurons (rat) (UniProt O70535); assay: GST pull-down, rat primary cortical neuron extracts as prey, anti-LIFR Western blot
T1 sequence (looked up): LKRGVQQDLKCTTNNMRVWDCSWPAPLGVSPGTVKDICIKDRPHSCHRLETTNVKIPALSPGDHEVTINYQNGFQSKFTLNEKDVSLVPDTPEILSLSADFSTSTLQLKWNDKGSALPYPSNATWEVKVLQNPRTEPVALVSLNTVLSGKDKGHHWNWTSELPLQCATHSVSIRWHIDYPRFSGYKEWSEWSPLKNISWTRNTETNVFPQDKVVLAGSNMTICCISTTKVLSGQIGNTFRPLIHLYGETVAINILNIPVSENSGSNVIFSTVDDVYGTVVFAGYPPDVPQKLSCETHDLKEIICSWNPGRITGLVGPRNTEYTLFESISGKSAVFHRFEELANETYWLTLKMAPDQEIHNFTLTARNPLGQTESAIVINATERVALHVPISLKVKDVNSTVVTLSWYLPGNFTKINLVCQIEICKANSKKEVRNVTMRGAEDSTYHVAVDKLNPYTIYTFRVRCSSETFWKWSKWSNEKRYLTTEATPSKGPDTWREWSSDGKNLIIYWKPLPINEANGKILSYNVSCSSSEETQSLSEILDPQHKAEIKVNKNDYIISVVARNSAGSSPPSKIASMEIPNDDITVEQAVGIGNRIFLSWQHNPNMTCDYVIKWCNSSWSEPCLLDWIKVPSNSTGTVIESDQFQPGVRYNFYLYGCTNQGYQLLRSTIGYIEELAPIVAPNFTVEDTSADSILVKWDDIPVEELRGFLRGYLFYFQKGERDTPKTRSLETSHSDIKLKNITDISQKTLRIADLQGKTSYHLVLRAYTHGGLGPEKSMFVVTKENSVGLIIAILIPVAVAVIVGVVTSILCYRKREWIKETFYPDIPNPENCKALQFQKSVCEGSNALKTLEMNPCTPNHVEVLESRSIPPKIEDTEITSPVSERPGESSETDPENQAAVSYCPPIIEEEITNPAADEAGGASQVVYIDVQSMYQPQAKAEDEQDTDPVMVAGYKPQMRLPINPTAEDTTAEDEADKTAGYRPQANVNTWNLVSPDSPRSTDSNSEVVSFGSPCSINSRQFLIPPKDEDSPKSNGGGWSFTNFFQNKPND

[2] = target: T2, human LIFRα from HEK 293 cell extracts (human) (UniProt P42702); assay: GST pull-down, HEK cell extracts as prey, anti-LIFR Western blot
T2 sequence (looked up): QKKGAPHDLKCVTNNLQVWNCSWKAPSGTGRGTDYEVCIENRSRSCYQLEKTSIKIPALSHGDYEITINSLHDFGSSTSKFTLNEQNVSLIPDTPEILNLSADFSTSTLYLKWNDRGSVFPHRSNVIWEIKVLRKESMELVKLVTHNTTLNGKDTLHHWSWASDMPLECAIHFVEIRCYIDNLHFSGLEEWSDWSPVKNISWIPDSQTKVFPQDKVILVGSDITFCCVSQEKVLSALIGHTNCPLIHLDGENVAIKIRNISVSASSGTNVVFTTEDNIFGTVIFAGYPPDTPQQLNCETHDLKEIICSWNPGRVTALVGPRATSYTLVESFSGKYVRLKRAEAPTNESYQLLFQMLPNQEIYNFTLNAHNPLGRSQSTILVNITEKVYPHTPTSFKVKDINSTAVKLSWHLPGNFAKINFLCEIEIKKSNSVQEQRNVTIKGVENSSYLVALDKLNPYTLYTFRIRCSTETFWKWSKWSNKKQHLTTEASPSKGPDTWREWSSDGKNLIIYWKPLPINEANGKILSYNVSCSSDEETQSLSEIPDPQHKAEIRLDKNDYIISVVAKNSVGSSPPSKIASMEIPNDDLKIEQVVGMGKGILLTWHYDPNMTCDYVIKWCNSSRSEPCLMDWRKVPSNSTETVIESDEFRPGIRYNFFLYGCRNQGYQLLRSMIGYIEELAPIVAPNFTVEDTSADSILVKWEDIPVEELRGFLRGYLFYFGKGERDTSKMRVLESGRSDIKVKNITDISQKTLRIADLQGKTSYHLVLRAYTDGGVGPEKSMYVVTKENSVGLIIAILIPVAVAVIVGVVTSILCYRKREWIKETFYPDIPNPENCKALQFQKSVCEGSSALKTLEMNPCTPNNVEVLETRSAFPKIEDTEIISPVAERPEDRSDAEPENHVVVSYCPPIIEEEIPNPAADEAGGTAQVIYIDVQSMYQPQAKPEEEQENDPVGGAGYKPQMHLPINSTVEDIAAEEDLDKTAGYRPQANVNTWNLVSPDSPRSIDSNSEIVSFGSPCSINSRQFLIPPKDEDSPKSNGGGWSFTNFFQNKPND

[3] = target: T3, V5-His-tagged murine soluble LIFR, secreted by HEK 293 cells (mouse) (UniProt P42703); assay: GST pull-down, HEK supernatant with msLIFR as prey, anti-V5 Western blot
T3 sequence (looked up): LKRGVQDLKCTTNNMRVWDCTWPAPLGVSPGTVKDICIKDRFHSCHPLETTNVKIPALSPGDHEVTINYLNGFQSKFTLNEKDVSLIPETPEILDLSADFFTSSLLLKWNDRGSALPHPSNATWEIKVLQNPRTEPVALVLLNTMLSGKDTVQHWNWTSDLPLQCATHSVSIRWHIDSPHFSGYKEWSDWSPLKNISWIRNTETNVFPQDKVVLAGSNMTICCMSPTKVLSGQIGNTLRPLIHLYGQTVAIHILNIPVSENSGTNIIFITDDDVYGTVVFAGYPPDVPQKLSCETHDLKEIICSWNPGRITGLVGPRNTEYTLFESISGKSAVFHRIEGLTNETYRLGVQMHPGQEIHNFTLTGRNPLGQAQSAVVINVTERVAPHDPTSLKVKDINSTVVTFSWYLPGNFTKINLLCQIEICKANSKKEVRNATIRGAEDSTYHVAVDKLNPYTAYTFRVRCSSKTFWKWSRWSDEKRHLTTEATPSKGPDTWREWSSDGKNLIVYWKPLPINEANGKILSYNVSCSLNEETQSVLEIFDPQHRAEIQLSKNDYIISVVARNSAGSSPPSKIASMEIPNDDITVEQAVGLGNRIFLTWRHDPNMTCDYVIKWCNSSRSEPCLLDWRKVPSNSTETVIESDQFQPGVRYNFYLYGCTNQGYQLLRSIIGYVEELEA

Measured: binding

B1: GST fusion protein of the mature murine EPO splice variant mS (complete loss of exon 4), expressed in E. coli (ligand, not shown: a dimerising Fc or GST)
chain: APPRLICDSRVLERYILEAKEAENVTMGCAEGPRLSENITVPDTKVNFYAWKRMEKELMSPPDTTPPAPLRTLTVDTFCKLFRVYANFLRGKLKLYTGEVCRRGDR
binds: all assays above
